Assay results reported in patent US9159937B2, “Heteroleptic light-emitting complexes” (SOLVAY SA, priority 2011, dated 2015).

Key:
[1] = Photoluminescence emission measurements in 2-methyl-THF solution; format: physicochemical; details: emission maximum, room temperature, ≈10^−5 mol/l in 2-methyl-THF
[2] = Absolute photoluminescence quantum yield and FWHM in 2-methyl-THF solution; format: physicochemical; details: room temperature; for FWHM: full width at half maximum of emission peak, 2-methyl-THF; for Φ: photoluminescence quantum yield, degassed 2-methyl-THF solution
[3] = Photoluminescence quantum yield and CRI of spincoated emissive layer films

Row | Molecule | λmax room T [1] | FWHM [2] | Φ [2] | photoluminescence quantum yield Φ of EML ([3]; 60 nm film, red and blue emitter in high triplet energy host, spincoated on fused silica) | color rendering index (CRI) of EML ([3]; derived from steady-state PL spectra of 60 nm film, red and blue emitter in host)
1 | [Ir+3].[c-]1ccccc1-c1ccc2ccccc2n1.[c-]1ccccc1-c1ccc2ccccc2n1.[c-]1ccccc1-c1ccc2ccccc2n1 [[Ir(2-PhQ)3], reference compound] | 589 nm | 100 nm | 61% | – | –
2 | [Ir(2-PhQ)2(DMC2)] | 611 nm | 116 nm | 62% | – | –
3 | [Ir(2-PhQ)2(mc3)] | 624 nm | 115 nm | 62% | – | –
4 | [Ir(2-PhQ)2(mc6)] | 624 nm | 115 nm | 56% | – | –
5 | [Ir(M-PhQ)3] [reference compound] | 584 nm | 97 nm | 80% | – | –
6 | [Ir(dmPhQ)2(acac)] [reference compound] | 616 nm | 72 nm | 72% | 72% | 64
7 | [Ir(n-hexPhQ)3] [reference compound] | 596 nm | – | – | – | –
8 | [Ir(tButPhQ)3] [reference compound] | 593 nm | – | – | – | –
